Measurements: US20040071656A1, “Modulation of heat-shock-protein-based immunotherapies” (priority 2001, published 2004)
These are yes or no findings as the source states them, for the method shown. In cells and extracts the contact can be indirect. Some entries that bind do so weakly or less than the wild type.

Chains of the proteins cited; added tags and fusions are not shown. Residues count along the entry.
UniProt P27512, residues 20-289: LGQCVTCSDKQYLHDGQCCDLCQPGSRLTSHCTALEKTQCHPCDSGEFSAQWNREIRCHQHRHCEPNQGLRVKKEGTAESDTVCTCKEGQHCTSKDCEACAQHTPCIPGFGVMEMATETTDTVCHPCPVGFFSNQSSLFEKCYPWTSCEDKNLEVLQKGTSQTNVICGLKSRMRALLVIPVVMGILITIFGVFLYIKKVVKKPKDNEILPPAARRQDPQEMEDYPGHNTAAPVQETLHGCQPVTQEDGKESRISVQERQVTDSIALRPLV
UniProt P0DMV8, residues 2-641: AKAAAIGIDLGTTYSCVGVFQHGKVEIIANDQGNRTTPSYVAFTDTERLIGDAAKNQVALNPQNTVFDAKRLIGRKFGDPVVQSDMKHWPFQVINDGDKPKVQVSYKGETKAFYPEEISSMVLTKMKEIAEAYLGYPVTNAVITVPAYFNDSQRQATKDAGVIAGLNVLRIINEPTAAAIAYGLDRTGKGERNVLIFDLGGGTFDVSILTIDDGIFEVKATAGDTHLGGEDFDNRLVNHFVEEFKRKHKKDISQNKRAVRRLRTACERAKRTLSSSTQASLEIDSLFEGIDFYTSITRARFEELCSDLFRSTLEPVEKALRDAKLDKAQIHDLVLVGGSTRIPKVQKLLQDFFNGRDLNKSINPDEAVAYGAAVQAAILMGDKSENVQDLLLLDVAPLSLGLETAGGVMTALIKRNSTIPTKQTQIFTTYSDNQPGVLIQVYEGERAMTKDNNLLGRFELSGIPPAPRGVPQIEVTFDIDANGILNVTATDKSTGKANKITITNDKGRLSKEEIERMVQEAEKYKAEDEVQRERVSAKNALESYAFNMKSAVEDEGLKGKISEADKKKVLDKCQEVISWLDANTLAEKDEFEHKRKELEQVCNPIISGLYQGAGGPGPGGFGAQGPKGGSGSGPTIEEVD

Biological target: Endogenous CD40 of LPS-stimulated murine ANA1 macrophage cells (murine) (UniProt P27512)
Experiment: Ni-NTA-agarose pull-down from ANA1 cell extract (Hsp70 preincubated with peptide C, with or without ADP), anti-CD40 immunoblot

Recombinant human His6-tagged Hsp70 (from UniProt P0DMV8 2-641)
binding: binds
